According to publication PMC9887883, “A family of C. elegans VASA homologs control Argonaute pathway specificity and promote transgenerational silencing”:

Biological target: GLH-1(K391A) (C. elegans)
Assay: affinity purification with mass spectrometry; proteins that co-precipitate with wild-type GLH-1 or GLH-1(K391A) from worms, identified by mass spectrometry; how GLH-1 was precipitated is not told

binding: binds
B1: PRG-1 (protein, UniProt P90786 1-824)
chain: MASGSGRGRGRGSGSNNSGGKDQKYLGTIQPDLFIRQQGQSKTGSSGQPQKCFANFIPIEMTQSDYSIYQYHVEFEPTVDSKANREKMLRDNNVTDEIGHHFVFDGMILYLKEEWEQNQMIEVQHPIDRSLICIRFKQTNRFLVDDPQTINIFNTIIRRSFDALQLTQLGRNYFNWGDSRAVPDYNMSILPGYETAIRMYEENFMLCVENRFKMVREESMYILFHKELRSCQNNPQRVQEKMNEMYGGTTIITRYNNKLHRYTRLDYSISPLSEFVKDGQSITLKEYFKNQYGIEITVDDQPIIISEGKPKQPGEPPQVSYIVPELCFPTGLTDEMRKDFKMMKEIAKHTRMSPQQRLVESRKLIVDLSKNEKVMECFKYWGISLGQDLANVQARVLKSEPLQGKKTYEGKQAEWARGVKECGIYRGSNMTNWIVIGPGSGNSGLLSQKFIEEARRLGKILQVQLGEPMCVPIRGISPNDYLEGVKGAIKQVDGEDIHMLVVMLADDNKTRYDSLKKFLCVECPIPNQCVNLRTLAGKSKDGGENKNLGSIVLKIVLQMICKTGGALWKVNIPLKNTMIVGYDLYHDSTLKGKTVGACVSTTSNDFTQFYSQTRPHENPTQLGNNLTHFVRKALKQYYDSNDQTLPSRLILYRDGAGDGQIPYIKNTEVKLVRDACDAVTDKAAELSNKVQEKIKLAFIIVTKRVNMRILKQGSSLDNAINPQPGTVVDTTVTRPERMDFYLVPQFVNQGTVTPVSYNIIHDDTDLGPDKHQQLAFKLCHLYYNWQGTVRVPAPCQYAHKLAFLTAQSLHDDANGCLRDKLFFL

Results are given in words; binding and its absence hold for the method and conditions named. In cells and extracts the contact can be indirect. A yes stands for co-enrichment or nearness to the bait. Other partners may have been found.
